## Results of single-concentration screens

The chains behind the UniProt entries cited, without tags or fusion partners.
UniProt I6X8D2, whole entry: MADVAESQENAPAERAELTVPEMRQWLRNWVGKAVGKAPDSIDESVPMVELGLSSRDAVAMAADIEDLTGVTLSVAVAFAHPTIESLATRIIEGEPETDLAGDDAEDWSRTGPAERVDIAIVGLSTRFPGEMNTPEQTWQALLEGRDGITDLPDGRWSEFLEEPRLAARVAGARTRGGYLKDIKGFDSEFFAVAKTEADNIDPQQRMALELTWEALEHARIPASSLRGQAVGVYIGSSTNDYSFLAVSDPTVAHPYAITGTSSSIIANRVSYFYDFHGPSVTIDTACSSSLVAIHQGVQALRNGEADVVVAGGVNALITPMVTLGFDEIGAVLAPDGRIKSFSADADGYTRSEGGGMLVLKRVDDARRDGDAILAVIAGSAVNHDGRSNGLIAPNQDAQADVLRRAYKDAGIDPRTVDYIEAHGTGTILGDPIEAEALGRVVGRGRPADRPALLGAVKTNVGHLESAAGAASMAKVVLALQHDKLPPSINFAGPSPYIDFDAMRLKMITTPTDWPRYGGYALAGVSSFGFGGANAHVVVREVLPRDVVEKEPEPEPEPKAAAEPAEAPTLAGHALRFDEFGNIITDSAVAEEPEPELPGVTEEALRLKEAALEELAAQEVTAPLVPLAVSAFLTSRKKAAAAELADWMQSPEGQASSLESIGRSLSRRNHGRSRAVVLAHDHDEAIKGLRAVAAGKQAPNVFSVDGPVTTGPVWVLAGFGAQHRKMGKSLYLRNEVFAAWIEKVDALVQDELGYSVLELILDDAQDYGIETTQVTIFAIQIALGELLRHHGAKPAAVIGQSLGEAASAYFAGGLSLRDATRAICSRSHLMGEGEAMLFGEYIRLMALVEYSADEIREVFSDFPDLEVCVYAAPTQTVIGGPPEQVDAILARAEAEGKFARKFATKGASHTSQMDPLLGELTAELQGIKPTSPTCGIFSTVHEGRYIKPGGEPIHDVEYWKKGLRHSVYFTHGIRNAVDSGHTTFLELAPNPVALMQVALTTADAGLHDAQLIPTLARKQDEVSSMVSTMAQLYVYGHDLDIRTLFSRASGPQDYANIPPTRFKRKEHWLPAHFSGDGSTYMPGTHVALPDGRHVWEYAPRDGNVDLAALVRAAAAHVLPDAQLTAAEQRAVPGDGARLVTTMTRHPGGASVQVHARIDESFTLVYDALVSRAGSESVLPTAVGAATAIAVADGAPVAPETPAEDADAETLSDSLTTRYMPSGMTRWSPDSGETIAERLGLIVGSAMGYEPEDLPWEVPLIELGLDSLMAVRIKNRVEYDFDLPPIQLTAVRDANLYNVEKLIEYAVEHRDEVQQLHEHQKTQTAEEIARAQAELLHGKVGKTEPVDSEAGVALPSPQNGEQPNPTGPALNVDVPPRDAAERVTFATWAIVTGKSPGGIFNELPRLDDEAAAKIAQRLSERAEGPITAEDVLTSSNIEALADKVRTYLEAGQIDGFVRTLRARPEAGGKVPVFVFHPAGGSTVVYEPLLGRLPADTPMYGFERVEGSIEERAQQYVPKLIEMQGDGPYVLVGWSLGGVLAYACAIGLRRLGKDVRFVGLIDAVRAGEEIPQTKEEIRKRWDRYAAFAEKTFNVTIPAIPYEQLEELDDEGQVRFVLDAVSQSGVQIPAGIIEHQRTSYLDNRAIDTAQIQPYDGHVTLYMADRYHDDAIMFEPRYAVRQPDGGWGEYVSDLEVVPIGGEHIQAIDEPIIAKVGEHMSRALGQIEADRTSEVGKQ

Each number is a percent effect as filed.
The record does not define 0% and 100%; most values in the screen are far below 50% and negative numbers occur (in some assays of this library far below -100).
Compounds were drawn at random from those tested, without regard to their results.

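Polyketide synthase Pks13, Mycobacterium tuberculosis (UniProt I6X8D2). Enzyme assay of the thioesterase domain of polyketide synthase 13; the read-out is not stated. Compounds at 30 µM. The record gives no direction; the compounds picked for IC50 retests had high values, so higher reads as stronger inhibition. About 67,000 compounds were tested under these conditions; 0.46% (about 300) showed 50% or more at least once.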

* CCOc1ccc(-n2nnc(C(=O)O)c2-c2ccncc2)cc1 | -27.81%
* Cc1ccc(S(=O)(=O)NC2=NCN(CCc3cccs3)CN2)cc1 | -1.672%
* O=C(c1ccco1)N1CCC(n2cc(-c3ccsc3)nn2)CC1 | -16.7%
* Cc1c(Br)cccc1C(=O)Nc1cc(C(N)=O)n(C)c1 | -35.44%
* O=C1CC(c2cccc(O)c2)c2c(c(C(=O)O)cn2-c2ccccc2)N1 (centres unmarked) | -11.48%
* Fc1cccnc1N1CCOCC2(CCCN(c3nncs3)C2)C1 (centres unmarked) | -2.997%
* Cc1ccc([C@@H]2CN(S(=O)(=O)C(C)C)C[C@H]2N(C)C)cc1 | -30.08%
* CCc1nc(C2CCCN2Cc2nc(C3CC3)no2)no1 (centres unmarked) | -1.43%
* O=C(NCCC(=O)N1CCCc2ccccc21)c1c(F)cccc1F | -18.92%
* COc1ccc(C(C)NC(=O)Nc2nccs2)cc1OC (centres unmarked) | -6.293%
* Cc1nc(C)n(C2CCCN(C(=O)CCc3cn(C)nc3C)C2)n1 (centres unmarked) | 8.727%
* Cc1ccc(CN(C)Cc2ncc(C(C)(C)C)o2)o1 | -15.31%
* Cc1cc(N2CCCC(O)(CN(C)C)C2)c2cc3c(cc2n1)OCO3 (centres unmarked) | 6.359%
* Cc1ncnc2c1CCN(C(=O)c1cccc(F)c1)CC2 | -11.58%
* CC(=O)NCCNC(=O)c1cnc(-c2ccc(C)cc2C)s1 | 10.77%
* Cc1ccc(OC2(C(=O)O)CCN(C(=O)c3ccc(F)cc3)CC2)cn1 | -12.85%
* Cc1cnc(CNC(=O)[C@@]23CCO[C@@H]2CCN(C2CCCC2)C3)cn1 | -13.58%
* Cc1nccn1-c1nccnc1C1CCCN(C2CCCC2)C1 (centres unmarked) | -2.825%
* CNc1ncc(CN(C)C(=O)c2c[nH]nc2-c2cccc(F)c2)cn1 | -20.02%
* CNC(=O)c1cc2c(s1)CCN(C(=O)CCC1CCCN(C)C1)C2 (centres unmarked) | 1.215%
* CN(C)CCn1ccc2ccc(NC(=O)c3ccncc3F)cc21 | -40.77%
* COCC(=O)N(C)Cc1ccc(Cl)c(Cl)c1 | -24.72%
* CC(C)n1cnnc1CN(C)Cc1cnc(-c2ccco2)nc1 | -25.53%
* Cc1nc(N)ncc1C(=O)N1CCCC(CCc2ccc(F)cc2)C1 (centres unmarked) | -8.59%
* CC(C)(NCc1cccc(C#N)c1)c1ccc2c(c1)OCO2 | -12.32%
* CCc1ccc(CN(C/C=C/c2ccccc2)CCOC)nc1 | -40.75%
* CC(NC(=O)NCCCn1ccnc1)c1ccc2c(c1)CCC(=O)N2 (centres unmarked) | -30.28%
* CCNC(=O)C1(CC2CC(c3ccccc3OC)=NO2)CCOCC1 (centres unmarked) | 1.249%
* CCCn1ncc(CN(Cc2cccnc2)Cc2cccs2)c1C | -3.898%
* COc1cccc(C(=O)N2CCc3nc(C4CCCN4)ncc3C2)c1 (centres unmarked) | -8.022%
* CSCCNC(=O)C1CCC(=O)N(C2CCCC2)C1 (centres unmarked) | -3.414%
* CN1C(=O)C[C@@H]2[C@@H]1CCN2C(=O)c1ccc[nH]1 | -5.063%
* COCCc1noc(-c2ccc(N[C@H]3CCCCNC3=O)nc2)n1 | -39.66%
* Cc1ccc(-c2nc(CN3CCc4c(ncn4C)C3)cs2)o1 | -7.696%
* CN(C)CC1(O)CCN(C(=O)c2cnc(-c3cccnc3)nc2)C1 (centres unmarked) | -21.79%
* Cc1nc(C(=O)N2CCN(S(C)(=O)=O)CC2)c(-c2ccccc2Cl)s1 | 16.67%
* CCCc1nc(C)c(C(=O)NCCNc2ncccn2)s1 | -18.75%
* CC1CCc2n[nH]c(C(=O)N3CCc4c(nc(N(C)C)[nH]c4=O)C3)c2C1 (centres unmarked) | -5.908%
* OC1(CN(Cc2cccnc2)C2CCCCC2)CNCCOC1 (centres unmarked) | -3.118%
* Cc1cc(CN2CCC3(CC2)CC(Nc2ncccn2)CO3)nn1C (centres unmarked) | 10.19%
* Cc1nnsc1C(=O)N(C)Cc1nc(-c2ccccn2)no1 | -37.46%
* CC(=O)Nc1ccc(Oc2cc(C)nc(C3CCNCC3)c2)cc1 | -1.833%
* Cc1cnc(C(=O)N2CCC(COCc3ccccc3)C2)cn1 (centres unmarked) | -24.82%
* Cn1ccnc1CN1CCN(c2ccc(C#N)cc2F)CC1 | -12.08%
* CCN1CC(C(=O)NCCOc2ccc3c(c2)OCO3)CC1=O (centres unmarked) | -14.3%
* CCS(=O)(=O)NCC(=O)NC1(C)CCc2ccccc2C1 (centres unmarked) | -16.43%
* COCCNC(=O)C(C)S(=O)(=O)c1ccc(OC)cc1 (centres unmarked) | 7.443%
* Cc1cc(CN2CCN(C(=O)NCc3csc(C)n3)CC2)on1 | -10.36%
* CC(C(=O)NCC(C)(C)c1ccc(Br)cc1)n1cncn1 (centres unmarked) | -5.233%
* Cc1nc(C(C)C)sc1C(C)N(C)C(=O)c1ccc(=O)n(C)c1 (centres unmarked) | -9.08%

The first 3 entries again:

- CCOc1ccc(-n2nnc(C(=O)O)c2-c2ccncc2)cc1 : -27.81%
- Cc1ccc(S(=O)(=O)NC2=NCN(CCc3cccs3)CN2)cc1 : -1.672%
- O=C(c1ccco1)N1CCC(n2cc(-c3ccsc3)nn2)CC1 : -16.7%

Source: ChEMBL document CHEMBL3988442, “University of Dundee, Small-Polar-MMV Screening Library” (2021).